Measurements published in paper PMC9065613.
These are yes or no findings as the source states them, for the method shown. Binding seen in cells or lysates may run through a third protein. Some binding calls cover weakened binding; strength is not graded here.

Sequences of proteins named here, by UniProt entry; tags and fusion partners are left off. A change or cut given only in a name is not applied to a line headed by its entry.
UniProt Q09427: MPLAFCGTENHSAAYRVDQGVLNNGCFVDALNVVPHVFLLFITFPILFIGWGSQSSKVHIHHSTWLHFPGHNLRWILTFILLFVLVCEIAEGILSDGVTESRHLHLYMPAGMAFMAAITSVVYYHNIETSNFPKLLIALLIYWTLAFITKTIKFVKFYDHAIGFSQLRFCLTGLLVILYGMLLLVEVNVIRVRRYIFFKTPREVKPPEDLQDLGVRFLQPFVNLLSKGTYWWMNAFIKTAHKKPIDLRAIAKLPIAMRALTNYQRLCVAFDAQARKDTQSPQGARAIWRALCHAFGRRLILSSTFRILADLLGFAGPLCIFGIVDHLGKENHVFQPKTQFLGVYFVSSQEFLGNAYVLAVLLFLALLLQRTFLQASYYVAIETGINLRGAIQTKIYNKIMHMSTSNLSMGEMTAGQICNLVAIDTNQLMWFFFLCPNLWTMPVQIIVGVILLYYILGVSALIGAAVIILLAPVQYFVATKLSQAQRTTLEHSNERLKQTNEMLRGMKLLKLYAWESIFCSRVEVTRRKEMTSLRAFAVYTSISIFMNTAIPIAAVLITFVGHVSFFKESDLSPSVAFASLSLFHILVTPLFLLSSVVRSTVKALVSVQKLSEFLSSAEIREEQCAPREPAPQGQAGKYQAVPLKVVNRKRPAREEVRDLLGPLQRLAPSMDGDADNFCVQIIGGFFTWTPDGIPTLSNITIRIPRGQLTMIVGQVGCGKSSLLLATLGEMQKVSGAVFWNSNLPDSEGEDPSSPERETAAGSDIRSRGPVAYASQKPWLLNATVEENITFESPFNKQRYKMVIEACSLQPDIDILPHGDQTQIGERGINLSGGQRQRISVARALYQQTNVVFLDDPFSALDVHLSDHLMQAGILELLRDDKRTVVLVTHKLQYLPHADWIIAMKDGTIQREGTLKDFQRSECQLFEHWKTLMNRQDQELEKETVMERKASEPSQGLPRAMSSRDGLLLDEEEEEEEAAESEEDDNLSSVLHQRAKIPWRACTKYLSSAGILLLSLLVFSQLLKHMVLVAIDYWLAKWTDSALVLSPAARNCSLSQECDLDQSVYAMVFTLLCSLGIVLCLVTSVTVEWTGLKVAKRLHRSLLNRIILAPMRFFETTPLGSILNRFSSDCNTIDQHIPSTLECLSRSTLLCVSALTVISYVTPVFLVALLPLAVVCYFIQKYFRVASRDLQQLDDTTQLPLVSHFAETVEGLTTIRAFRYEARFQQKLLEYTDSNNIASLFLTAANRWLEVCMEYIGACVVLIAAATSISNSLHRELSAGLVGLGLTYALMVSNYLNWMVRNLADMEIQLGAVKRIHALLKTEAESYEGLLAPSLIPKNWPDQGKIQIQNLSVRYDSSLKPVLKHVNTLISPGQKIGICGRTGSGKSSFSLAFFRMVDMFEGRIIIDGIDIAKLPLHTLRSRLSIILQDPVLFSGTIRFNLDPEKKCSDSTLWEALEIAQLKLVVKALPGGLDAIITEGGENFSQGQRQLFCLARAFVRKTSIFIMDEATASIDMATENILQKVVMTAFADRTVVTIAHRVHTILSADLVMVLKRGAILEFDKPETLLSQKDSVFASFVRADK
UniProt Q14654: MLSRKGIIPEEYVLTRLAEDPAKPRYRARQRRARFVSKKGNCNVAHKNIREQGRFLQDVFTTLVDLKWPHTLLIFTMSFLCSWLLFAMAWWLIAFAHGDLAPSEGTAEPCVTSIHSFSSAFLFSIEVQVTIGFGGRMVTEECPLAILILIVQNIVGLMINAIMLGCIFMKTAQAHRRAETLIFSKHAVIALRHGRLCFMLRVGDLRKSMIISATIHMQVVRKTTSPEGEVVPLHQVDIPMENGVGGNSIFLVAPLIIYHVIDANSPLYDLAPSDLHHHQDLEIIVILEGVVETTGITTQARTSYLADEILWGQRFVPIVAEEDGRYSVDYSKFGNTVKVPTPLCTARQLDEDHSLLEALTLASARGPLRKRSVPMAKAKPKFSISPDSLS

How the values were obtained:
[1] = biological target: T1, GM130, cis-Golgi matrix protein (rat (endogenous in INS-1)) (UniProt Q62839); test: co-IP; lysates of transfected cells precipitated with GM130 antibody on agarose/protein A-Sepharose beads (2 ug antibody, 4 h, 4 °C), blotted with HA and GM130 antibodies; cells treated with DMSO, 10 uM or 100 uM carbamazepine for 16 h (Carb dose-dependently reduced the co-precipitate)
T1 sequence: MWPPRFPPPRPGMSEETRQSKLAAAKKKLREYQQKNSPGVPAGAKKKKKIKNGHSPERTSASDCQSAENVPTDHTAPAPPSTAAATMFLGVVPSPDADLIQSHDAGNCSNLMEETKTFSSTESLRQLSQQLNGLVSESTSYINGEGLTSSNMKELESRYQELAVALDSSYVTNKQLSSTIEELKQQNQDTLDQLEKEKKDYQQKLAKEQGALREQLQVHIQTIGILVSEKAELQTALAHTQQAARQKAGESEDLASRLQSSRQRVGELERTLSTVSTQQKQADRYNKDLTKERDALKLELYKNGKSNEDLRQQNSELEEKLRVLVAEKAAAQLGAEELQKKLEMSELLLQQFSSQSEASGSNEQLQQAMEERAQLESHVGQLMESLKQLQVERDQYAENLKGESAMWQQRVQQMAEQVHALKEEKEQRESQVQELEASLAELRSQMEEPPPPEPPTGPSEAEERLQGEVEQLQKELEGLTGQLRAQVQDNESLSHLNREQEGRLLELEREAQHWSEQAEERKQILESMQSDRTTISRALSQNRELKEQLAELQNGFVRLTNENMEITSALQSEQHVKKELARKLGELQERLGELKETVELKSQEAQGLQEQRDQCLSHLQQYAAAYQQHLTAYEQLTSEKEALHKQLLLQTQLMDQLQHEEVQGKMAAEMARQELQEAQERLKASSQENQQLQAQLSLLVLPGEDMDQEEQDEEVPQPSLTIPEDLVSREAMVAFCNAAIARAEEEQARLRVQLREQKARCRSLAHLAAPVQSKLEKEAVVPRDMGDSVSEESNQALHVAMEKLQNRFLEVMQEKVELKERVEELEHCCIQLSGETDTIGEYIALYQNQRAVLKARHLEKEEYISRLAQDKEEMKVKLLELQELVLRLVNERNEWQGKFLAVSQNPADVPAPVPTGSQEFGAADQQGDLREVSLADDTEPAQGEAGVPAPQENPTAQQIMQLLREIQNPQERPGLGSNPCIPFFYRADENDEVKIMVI

[2] = biological target: mutant KATP channel (HA-SUR1/Kir6.2-A28V) (rodent | human) (UniProt Q09427+Q14654); test: co-IP; lysates of transfected cells precipitated with HA antibody on agarose/protein A-Sepharose beads (2 ug antibody, 4 h, 4 °C), blotted with HA and GM130 antibodies; cells treated with DMSO, 10 uM or 100 uM carbamazepine for 16 h (Carb dose-dependently reduced the co-precipitate)
[3] = biological target: T1, GM130, cis-Golgi matrix protein (rat (endogenous in INS-1)); test: proximity ligation; Duolink PLA in INS-1 cells with anti-Kir6.2 and anti-GM130 primary antibodies, confocal microscopy, DAPI counterstain

mutant KATP channel (HA-SUR1/Kir6.2-A28V) (from UniProt Q09427 1-1582; Q14654 1-390) (complex)
binding [1]: binds

B1: GM130, cis-Golgi matrix protein (protein, UniProt Q62839 1-998)
chain: T1 sequence
binding [2]: binds

B2: endogenous Kir6.2 of INS-1 cells (protein, UniProt P70673 1-390)
chain: MLSRKGIIPEEYVLTRLAEDPTEPRYRTRERRARFVSKKGNCNVAHKNIREQGRFLQDVFTTLVDLKWPHTLLIFTMSFLCSWLLFAMVWWLIAFAHGDLAPGEGTNVPCVTSIHSFSSAFLFSIEVQVTIGFGGRMVTEECPLAILILIVQNIVGLMINAIMLGCIFMKTAQAHRRAETLIFSKHAVITLRHGRLCFMLRVGDLRKSMIISATIHMQVVRKTTSPEGEVVPLHQVDIPMENGVGGNSIFLVAPLIIYHVIDSNSPLYDLAPSDLHHHQDLEIIVILEGVVETTGITTQARTSYLADEILWGQRFVPIVAEEDGRYSVDYSKFGNTVKVPTPLCTARQLDEDRSLLDALTLASSRGPLRKRSVAVAKAKPKFSISPDSLS
binding [3]: binds
